Source: patent publication US4133805A (American Home Products Corporation, priority 1975, dated 1979)
Strings that start with PEPTIDE1 are HELM notation: dots part the residues, brackets hold end groups and non-standard residues.

Experiment: general procedure: Boc solid-phase peptide synthesis; chloromethylated polystyrene resin (styrene with about 1 to 2% divinyl benzene)
Details: purification step, recovery from fraction D (700 mg)

Question: With “PEPTIDE1{[Ahp7].K.N.F.F.W.K.T.F.T.S}$PEPTIDE1,PEPTIDE1,1:R1-11:R2$$$V2.0” as the substance, how does the step yield read?
Answer: Its step yield is 70% recovery.
